# Experimental data reported in the supplement of paper PMC7666118.
# Sequences of proteins named here, by UniProt entry; tags and fusion partners are left off. A change or cut given only in a name is not applied to a line headed by its entry.
# UniProt Q12792, whole entry: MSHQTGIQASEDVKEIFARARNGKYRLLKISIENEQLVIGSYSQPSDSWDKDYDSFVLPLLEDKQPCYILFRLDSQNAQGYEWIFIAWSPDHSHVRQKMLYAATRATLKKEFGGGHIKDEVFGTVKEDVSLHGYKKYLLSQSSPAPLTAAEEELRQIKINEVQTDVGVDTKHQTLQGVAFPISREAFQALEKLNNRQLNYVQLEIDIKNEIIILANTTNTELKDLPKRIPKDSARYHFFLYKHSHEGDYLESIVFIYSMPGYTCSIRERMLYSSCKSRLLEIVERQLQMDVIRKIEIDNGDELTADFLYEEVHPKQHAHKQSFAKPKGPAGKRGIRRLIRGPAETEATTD
# UniProt O15042: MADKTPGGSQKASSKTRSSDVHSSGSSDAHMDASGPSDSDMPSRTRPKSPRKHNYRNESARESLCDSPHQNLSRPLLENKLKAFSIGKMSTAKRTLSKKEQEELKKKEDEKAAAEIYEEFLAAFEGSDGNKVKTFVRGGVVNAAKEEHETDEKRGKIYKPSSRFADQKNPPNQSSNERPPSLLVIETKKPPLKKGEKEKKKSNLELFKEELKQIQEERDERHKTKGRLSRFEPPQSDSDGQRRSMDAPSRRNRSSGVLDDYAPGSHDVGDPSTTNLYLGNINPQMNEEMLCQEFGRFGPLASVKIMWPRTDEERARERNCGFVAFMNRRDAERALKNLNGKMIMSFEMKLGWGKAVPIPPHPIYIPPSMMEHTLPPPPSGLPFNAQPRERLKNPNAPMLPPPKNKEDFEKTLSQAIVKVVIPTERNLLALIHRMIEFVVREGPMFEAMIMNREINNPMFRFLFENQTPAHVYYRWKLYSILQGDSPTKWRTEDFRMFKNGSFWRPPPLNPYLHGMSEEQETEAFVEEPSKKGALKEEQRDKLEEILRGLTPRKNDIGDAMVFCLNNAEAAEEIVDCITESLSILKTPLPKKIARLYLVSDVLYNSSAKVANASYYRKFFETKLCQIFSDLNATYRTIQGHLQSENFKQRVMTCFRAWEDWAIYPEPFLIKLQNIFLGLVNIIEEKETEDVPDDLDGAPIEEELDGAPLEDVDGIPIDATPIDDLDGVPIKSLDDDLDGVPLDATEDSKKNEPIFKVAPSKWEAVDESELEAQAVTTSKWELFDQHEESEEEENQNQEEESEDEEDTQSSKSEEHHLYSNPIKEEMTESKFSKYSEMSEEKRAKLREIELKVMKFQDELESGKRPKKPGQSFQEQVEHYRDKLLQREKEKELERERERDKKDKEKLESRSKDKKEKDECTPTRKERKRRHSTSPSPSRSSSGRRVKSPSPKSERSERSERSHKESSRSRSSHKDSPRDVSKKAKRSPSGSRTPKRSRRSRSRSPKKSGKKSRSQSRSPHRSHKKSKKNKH
# UniProt Q04726: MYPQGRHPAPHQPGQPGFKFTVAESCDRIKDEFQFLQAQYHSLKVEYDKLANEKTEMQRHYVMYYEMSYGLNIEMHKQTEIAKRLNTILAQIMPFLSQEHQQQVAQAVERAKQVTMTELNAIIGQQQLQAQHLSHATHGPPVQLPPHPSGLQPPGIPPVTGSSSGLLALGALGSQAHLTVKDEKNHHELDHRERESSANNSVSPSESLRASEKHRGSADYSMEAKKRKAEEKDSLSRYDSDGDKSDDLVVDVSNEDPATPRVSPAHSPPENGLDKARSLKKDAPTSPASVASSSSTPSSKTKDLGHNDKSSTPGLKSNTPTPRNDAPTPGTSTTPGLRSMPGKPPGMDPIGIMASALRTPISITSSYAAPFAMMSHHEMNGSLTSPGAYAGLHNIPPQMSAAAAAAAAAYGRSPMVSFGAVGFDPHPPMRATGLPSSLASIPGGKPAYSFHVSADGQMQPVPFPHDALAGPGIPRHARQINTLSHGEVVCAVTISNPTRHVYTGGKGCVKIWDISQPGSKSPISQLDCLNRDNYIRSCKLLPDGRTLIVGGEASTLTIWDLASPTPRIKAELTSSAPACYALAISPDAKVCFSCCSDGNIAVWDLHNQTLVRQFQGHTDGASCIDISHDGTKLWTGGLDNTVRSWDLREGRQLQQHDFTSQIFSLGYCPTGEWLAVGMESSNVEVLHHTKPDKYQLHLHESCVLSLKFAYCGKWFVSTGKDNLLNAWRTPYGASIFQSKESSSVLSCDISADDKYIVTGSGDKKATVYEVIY
# UniProt Q15025: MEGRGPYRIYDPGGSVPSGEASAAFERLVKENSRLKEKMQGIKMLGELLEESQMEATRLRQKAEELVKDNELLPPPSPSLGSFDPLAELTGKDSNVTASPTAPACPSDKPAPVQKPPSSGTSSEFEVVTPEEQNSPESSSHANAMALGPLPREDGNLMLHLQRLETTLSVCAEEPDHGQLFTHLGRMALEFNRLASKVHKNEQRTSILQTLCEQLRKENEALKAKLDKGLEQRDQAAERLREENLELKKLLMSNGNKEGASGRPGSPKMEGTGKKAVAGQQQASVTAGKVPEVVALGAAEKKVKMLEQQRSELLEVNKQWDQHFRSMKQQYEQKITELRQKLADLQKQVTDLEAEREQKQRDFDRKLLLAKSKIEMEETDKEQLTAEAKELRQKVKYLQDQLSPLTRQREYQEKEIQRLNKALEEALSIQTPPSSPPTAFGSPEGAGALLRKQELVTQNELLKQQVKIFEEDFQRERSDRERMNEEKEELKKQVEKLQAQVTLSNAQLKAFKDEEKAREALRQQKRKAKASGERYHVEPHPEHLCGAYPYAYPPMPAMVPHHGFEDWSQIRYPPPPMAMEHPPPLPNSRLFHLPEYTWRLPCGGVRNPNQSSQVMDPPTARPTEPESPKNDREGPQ
# UniProt P09493, whole entry: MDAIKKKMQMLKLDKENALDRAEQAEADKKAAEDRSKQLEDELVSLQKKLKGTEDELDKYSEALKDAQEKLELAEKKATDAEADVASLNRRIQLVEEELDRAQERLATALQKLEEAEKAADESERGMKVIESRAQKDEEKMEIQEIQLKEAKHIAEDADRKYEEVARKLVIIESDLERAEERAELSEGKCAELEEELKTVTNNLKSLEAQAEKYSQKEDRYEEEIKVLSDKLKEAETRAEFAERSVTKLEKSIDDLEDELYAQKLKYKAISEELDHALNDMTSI
# UniProt Q99081: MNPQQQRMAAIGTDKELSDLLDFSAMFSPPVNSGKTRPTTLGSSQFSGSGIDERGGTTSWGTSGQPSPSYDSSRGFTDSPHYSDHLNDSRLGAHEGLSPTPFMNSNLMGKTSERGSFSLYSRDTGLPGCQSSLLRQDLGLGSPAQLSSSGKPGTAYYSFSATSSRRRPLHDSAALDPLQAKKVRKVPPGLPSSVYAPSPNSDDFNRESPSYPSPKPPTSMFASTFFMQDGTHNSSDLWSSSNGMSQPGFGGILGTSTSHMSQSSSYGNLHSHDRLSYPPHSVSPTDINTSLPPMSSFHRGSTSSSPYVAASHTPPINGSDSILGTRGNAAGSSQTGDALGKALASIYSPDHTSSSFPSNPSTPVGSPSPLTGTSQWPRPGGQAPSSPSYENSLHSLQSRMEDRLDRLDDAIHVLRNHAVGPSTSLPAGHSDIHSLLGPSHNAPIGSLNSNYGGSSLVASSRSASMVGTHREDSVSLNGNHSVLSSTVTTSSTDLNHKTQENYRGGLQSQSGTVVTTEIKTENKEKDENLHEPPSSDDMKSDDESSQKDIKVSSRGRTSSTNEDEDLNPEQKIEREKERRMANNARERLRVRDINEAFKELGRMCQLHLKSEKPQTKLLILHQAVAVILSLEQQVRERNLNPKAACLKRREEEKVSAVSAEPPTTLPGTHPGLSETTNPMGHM
# UniProt Q15642: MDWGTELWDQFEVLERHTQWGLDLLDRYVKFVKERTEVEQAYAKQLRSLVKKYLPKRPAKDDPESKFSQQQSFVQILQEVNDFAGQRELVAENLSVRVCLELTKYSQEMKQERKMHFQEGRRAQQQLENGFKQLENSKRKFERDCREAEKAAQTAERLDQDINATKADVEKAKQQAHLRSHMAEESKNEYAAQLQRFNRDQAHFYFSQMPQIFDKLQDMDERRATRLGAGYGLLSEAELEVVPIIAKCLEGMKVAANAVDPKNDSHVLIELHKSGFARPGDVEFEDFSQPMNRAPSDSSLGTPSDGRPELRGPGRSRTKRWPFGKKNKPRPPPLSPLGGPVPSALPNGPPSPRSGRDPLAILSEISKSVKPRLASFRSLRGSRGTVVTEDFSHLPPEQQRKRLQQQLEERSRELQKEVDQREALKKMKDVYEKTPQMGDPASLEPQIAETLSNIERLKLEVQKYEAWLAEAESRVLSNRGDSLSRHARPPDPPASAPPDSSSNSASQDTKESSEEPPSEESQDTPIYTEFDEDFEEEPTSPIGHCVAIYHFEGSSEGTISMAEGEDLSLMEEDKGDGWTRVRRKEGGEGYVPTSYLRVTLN
# UniProt P62380: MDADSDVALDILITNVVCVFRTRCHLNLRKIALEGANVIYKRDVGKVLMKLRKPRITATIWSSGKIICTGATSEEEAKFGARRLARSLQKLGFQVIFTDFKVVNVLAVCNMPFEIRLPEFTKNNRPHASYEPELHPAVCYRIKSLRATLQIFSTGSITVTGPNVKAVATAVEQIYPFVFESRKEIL
# UniProt Q8NBS9: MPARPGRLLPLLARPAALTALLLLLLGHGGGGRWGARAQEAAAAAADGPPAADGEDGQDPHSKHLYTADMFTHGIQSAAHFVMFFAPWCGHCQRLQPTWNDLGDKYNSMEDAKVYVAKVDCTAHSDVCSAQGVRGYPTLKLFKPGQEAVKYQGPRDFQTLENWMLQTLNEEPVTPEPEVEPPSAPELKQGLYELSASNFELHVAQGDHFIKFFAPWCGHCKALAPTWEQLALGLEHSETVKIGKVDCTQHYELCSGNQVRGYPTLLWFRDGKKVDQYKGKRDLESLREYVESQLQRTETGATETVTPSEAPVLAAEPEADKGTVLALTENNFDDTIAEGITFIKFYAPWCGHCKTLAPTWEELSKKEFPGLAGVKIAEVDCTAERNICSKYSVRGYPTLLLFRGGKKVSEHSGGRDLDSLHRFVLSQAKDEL
# UniProt Q9Y5L0: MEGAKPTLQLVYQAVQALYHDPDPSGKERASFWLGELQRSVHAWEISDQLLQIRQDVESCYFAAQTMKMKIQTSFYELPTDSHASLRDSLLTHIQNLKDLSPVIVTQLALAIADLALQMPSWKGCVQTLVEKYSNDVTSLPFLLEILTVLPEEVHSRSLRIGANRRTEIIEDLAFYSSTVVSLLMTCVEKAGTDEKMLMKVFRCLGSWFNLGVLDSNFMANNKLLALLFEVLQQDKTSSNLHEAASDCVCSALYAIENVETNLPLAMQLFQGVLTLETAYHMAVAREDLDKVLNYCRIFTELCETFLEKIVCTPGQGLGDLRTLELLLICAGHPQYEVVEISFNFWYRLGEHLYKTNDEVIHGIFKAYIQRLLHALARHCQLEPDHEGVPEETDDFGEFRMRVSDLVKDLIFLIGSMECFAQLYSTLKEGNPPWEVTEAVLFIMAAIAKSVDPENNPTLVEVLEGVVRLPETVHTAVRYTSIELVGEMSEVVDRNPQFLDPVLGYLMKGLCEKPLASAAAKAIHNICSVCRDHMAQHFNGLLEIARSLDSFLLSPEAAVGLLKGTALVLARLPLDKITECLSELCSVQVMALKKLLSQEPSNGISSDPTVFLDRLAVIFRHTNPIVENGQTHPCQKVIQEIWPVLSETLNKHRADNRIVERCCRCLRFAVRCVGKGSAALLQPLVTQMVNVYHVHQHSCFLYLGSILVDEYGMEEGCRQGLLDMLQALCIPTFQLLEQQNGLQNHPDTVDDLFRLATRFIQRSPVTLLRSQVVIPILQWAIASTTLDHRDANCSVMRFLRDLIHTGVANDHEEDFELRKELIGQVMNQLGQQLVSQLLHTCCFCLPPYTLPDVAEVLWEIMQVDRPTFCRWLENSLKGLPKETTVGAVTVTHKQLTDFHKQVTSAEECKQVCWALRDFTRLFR
# This is one part of the list.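 Rule for the calls: active = dose-dependent thermal stabilisation significant by F-test of dose-response against flat model at 10% FDR; inactive = not significant.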
# Compound: Nc1nc2c(ncn2[C@@H]2O[C@H](COP(=O)(O)OP(=O)(O)OP(=O)(O)O)[C@@H](O)[C@H]2O)c(=O)[nH]1
# Assay: dose-dependent thermal stabilisation call (2D-TPP, DLPTP, 10% FDR) (binary (1 = stabilised)); higher = stabilised by the compound
# Details: system: Jurkat gel-filtered lysate; concentration range 1-500 µM
# Protocol: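 2D thermal proteome profiling in gel-filtered Jurkat E6.1 lysate (2 mg/ml) treated with NaGTP (0, 1, 10, 100, 500 uM) for 10 min at room temperature, then heated 3 min at one of 12 temperatures (42-63.9 C). Soluble protein was quantified by TMT10 MS. The value is the DLPTP call of the paper: dose-dependent thermal stabilisation over all temperatures at 10% FDR (F-test of a dose-response against a flat model); one experiment, one call per tested protein.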
row,Target,dose-dependent thermal stabilisation call
1,TWF1 (UniProt Q12792),inactive: 0
2,UBA3 (UniProt Q8TBC4),inactive: 0
3,TOX (UniProt O94900),inactive: 0
4,UBA6,inactive: 0
5,TPX2 (UniProt Q9ULW0),inactive: 0
6,TUSC2 (UniProt O75896),inactive: 0
7,TTN (UniProt Q8WZ42),inactive: 0
8,U2SURP (UniProt O15042),inactive: 0
9,TRIM11 (UniProt Q96F44),inactive: 0
10,TBCC (UniProt Q15814),inactive: 0
11,TBL1X (UniProt O60907),inactive: 0
12,TLN1 (UniProt Q9Y490),inactive: 0
13,TSC22D2 (UniProt O75157),inactive: 0
14,TAGLN2 (UniProt P37802),inactive: 0
15,TLE3 (UniProt Q04726),inactive: 0
16,TERF2IP (UniProt Q9NYB0),inactive: 0
17,TNIP1 (UniProt Q15025),inactive: 0
18,TPM1 (UniProt P09493),inactive: 0
19,TWISTNB (UniProt Q3B726),inactive: 0
20,TCP11L1 (UniProt Q9NUJ3),inactive: 0

# 2 entries from above, with bars between the fields.
row | Target | dose-dependent thermal stabilisation call
6 | TUSC2 (UniProt O75896) | inactive: 0
7 | TTN (UniProt Q8WZ42) | inactive: 0

# Going on with the list.

row,Target,dose-dependent thermal stabilisation call
1,THOP1 (UniProt P52888),inactive: 0
2,TBC1D10B (UniProt Q4KMP7),inactive: 0
3,TBC1D9B (UniProt Q66K14),inactive: 0
4,TCF12 (UniProt Q99081),inactive: 0
5,TRIP10 (UniProt Q15642),inactive: 0
6,TGDS (UniProt O95455),inactive: 0
7,UBAP2 (UniProt Q5T6F2),inactive: 0
8,TP53I3 (UniProt Q53FA7),inactive: 0
9,TSTD1 (UniProt Q8NFU3),inactive: 0
10,TBPL1 (UniProt P62380),inactive: 0
11,TROVE2 (UniProt P10155),inactive: 0
12,TSC2 (UniProt P49815),inactive: 0
13,UBASH3B (UniProt Q8TF42),inactive: 0
14,TIPIN (UniProt Q9BVW5),inactive: 0
15,TRIM33 (UniProt Q9UPN9),inactive: 0
16,TXNDC5 (UniProt Q8NBS9),inactive: 0
17,TNPO3 (UniProt Q9Y5L0),active: 1
18,THUMPD1 (UniProt Q9NXG2),inactive: 0
19,TRMT61B (UniProt Q9BVS5),inactive: 0
20,TSC1 (UniProt Q92574),inactive: 0
